Results deposited as PubChem BioAssay AID1259308 (NCATS, 2017)
In all, the deposit lists about 59,000 reagents; shown is an unselected part. In the full data, about 1,510 (2.6%) got an active call. 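Calls use total luciferase alone and ignore viability, so some active siRNAs may act by altering cell number.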 Reagents against one gene are numbered here. Not all columns of the deposit are shown. No sequences are given here.

Assay: 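Candidate targets for better recombinant protein yield in mammalian cells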 (primary screen)
Cells: human HEK293 embryonic kidney cells stably expressing firefly luciferase (HEK-CMV-Luc2-Hygro)
Knock-down reagent: single siRNA against human genes, 0.8 pmol siRNA per well
Timing: 72 h
Detection: 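Reporter luminescence and viable-cell signal on separate replicate plates, given as percent of non-targeting control and median/MAD z-scores, plus per-cell luciferase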
Direction: total luciferase, z-score: higher = more reporter protein produced
Call rule: 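Active when the median/MAD z-score for overall luciferase is greater than 3; a gene was taken forward for validation with new siRNAs if at least two of its three siRNAs passed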
Meaning of the calls: active = raised luciferase; inactive = no rise

| Gene | siRNA no. | total luciferase, z-score | outcome |
| --- | --- | --- | --- |
| LOC646388 | 1 | -0.883 | inactive |
| LOC646388 | 2 | -0.544 | inactive |
| LOC646388 | 3 | -0.676 | inactive |
| ICAM4 | 1 | -0.282 | inactive |
| ICAM4 | 2 | -0.116 | inactive |
| ICAM4 | 3 | -0.31 | inactive |
| CEACAM22P | 1 | -0.111 | inactive |
| CEACAM22P | 2 | 0.689 | inactive |
| CEACAM22P | 3 | 1.1 | inactive |
| JMJD7-PLA2G4B | 1 | 5.7 | active |
| JMJD7-PLA2G4B | 2 | -0.594 | inactive |
| JMJD7-PLA2G4B | 3 | 1.04 | inactive |
| ELK1 | 1 | -1.12 | inactive |
| ELK1 | 2 | 0.542 | inactive |
| ELK1 | 3 | -2.53 | inactive |
| ZFP57 | 1 | 0.577 | inactive |
| ZFP57 | 2 | 1.26 | inactive |
| ZFP57 | 3 | 0.38 | inactive |
| CSNK1G2 | 1 | -0.174 | inactive |
| CSNK1G2 | 2 | -1.74 | inactive |
| CSNK1G2 | 3 | 0.194 | inactive |
| EXOSC4 | 1 | 0.0123 | inactive |
| EXOSC4 | 2 | -1.88 | inactive |
| EXOSC4 | 3 | -0.0567 | inactive |
| AJM1 | 1 | 0.608 | inactive |
| AJM1 | 2 | 0.545 | inactive |
| AJM1 | 3 | -1.9 | inactive |
| BCL2L15 | 1 | -1.68 | inactive |
| BCL2L15 | 2 | 0.0795 | inactive |
| BCL2L15 | 3 | -1.13 | inactive |
| DUSP12 | 1 | 0.27 | inactive |
| DUSP12 | 2 | -0.0519 | inactive |
| DUSP12 | 3 | -1.43 | inactive |
| ANXA10 | 1 | 0.282 | inactive |
| ANXA10 | 2 | -0.184 | inactive |
| ANXA10 | 3 | -0.13 | inactive |
| KRT73 | 1 | 1.41 | inactive |
| KRT73 | 2 | -0.684 | inactive |
| KRT73 | 3 | 0.122 | inactive |

A run of entries from the list above, as a working copy:
| Gene | siRNA no. | total luciferase, z-score | outcome |
| --- | --- | --- | --- |
| CSNK1G2 | 1 | -0.174 | inactive |
| CSNK1G2 | 2 | -1.74 | inactive |
| CSNK1G2 | 3 | 0.194 | inactive |
| EXOSC4 | 1 | 0.0123 | inactive |
| EXOSC4 | 2 | -1.88 | inactive |
| EXOSC4 | 3 | -0.0567 | inactive |
| AJM1 | 1 | 0.608 | inactive |
| AJM1 | 2 | 0.545 | inactive |
| AJM1 | 3 | -1.9 | inactive |
| BCL2L15 | 1 | -1.68 | inactive |

The results go on:
| Gene | siRNA no. | total luciferase, z-score | outcome |
| --- | --- | --- | --- |
| EVA1C | 1 | -0.0632 | inactive |
| EVA1C | 2 | 1.02 | inactive |
| EVA1C | 3 | 0.606 | inactive |
| SLC60A1 | 1 | 1.22 | inactive |
| SLC60A1 | 2 | -0.746 | inactive |
| SLC60A1 | 3 | -0.21 | inactive |
| TSPAN14 | 1 | 6.03 | active |
| TSPAN14 | 2 | -2.32 | inactive |
| TSPAN14 | 3 | -0.367 | inactive |
| DLL1 | 1 | 1.94 | inactive |
| DLL1 | 2 | 0.202 | inactive |
| DLL1 | 3 | 1.75 | inactive |
| IL22RA2 | 1 | -0.217 | inactive |
| IL22RA2 | 2 | -2.52 | inactive |
| IL22RA2 | 3 | -0.305 | inactive |
| PCIF1 | 1 | -0.875 | inactive |
| PCIF1 | 2 | 1.9 | inactive |
| PCIF1 | 3 | -0.244 | inactive |
| CLN3 | 1 | 1.72 | inactive |
| CLN3 | 2 | -1.86 | inactive |
| CLN3 | 3 | -0.314 | inactive |
| CEP63 | 1 | 1.54 | inactive |
| CEP63 | 2 | -0.531 | inactive |
| CEP63 | 3 | 0.0339 | inactive |
| DYDC2 | 1 | -0.0314 | inactive |
| DYDC2 | 2 | -0.643 | inactive |
| DYDC2 | 3 | -0.422 | inactive |
| PDLIM1 | 1 | 0.43 | inactive |
| PDLIM1 | 2 | 0.46 | inactive |
| PDLIM1 | 3 | -0.68 | inactive |
| ZNF212 | 1 | 0.498 | inactive |
| ZNF212 | 2 | 0.682 | inactive |
| ZNF212 | 3 | 2.44 | inactive |
| CCL2 | 1 | 0.143 | inactive |
| CCL2 | 2 | 1.39 | inactive |
| CCL2 | 3 | 0.0359 | inactive |
